PubChem BioAssay AID1259308 | NCATS | 2017
The whole screen tested about 59,000 reagents; shown is a random part of them. Over the whole deposit, about 1,510 (2.6%) got an active call. 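Calls use total luciferase alone and ignore viability, so some active siRNAs may act by altering cell number.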 The numbers tell different reagents against one gene apart. Further read-outs or replicates are left out here.

Assay: 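Knock-downs that increase output of a recombinant reporter protein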 (primary screen)
System: human HEK293 embryonic kidney cells stably expressing firefly luciferase (HEK-CMV-Luc2-Hygro)
Knock-down reagent: single siRNA against human genes, 0.8 pmol siRNA per well
Duration: 72 h
Detection: 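Luciferase light (ONE-Glo) measured on one replicate plate set and viability (CellTiter-Glo) on the other, scaled to a negative control siRNA, with robust z-scores and luciferase per cell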
Direction: total luciferase, z-score and total luciferase, % of control: higher = more reporter protein produced
Hit rule: 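Active when the median/MAD z-score for overall luciferase is greater than 3; a gene was taken forward for validation with new siRNAs if at least two of its three siRNAs passed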
Meaning of the calls: active = raised luciferase; inactive = no rise

IPO13 (GeneID 9670) #1: total luciferase, z-score = -0.366; total luciferase, % of control = 74.6; activity call = inactive
IPO13 (GeneID 9670) #2: total luciferase, z-score = -0.314; total luciferase, % of control = 75.6; activity call = inactive
IPO13 (GeneID 9670) #3: total luciferase, z-score = 0.288; total luciferase, % of control = 87.6; activity call = inactive
ZNF488 (GeneID 118738) #1: total luciferase, z-score = -0.434; total luciferase, % of control = 73.3; activity call = inactive
ZNF488 (GeneID 118738) #2: total luciferase, z-score = 3.78; total luciferase, % of control = 157; activity call = active
ZNF488 (GeneID 118738) #3: total luciferase, z-score = 0.457; total luciferase, % of control = 91; activity call = inactive
ATP1A4 (GeneID 480) #1: total luciferase, z-score = -0.412; total luciferase, % of control = 73.7; activity call = inactive
ATP1A4 (GeneID 480) #2: total luciferase, z-score = -0.0334; total luciferase, % of control = 81.2; activity call = inactive
ATP1A4 (GeneID 480) #3: total luciferase, z-score = 0.0191; total luciferase, % of control = 82.3; activity call = inactive
PRDX5 (GeneID 25824) #1: total luciferase, z-score = -1.17; total luciferase, % of control = 58.7; activity call = inactive
PRDX5 (GeneID 25824) #2: total luciferase, z-score = 0.334; total luciferase, % of control = 88.5; activity call = inactive
PRDX5 (GeneID 25824) #3: total luciferase, z-score = 0.0182; total luciferase, % of control = 82.2; activity call = inactive
DPY19L1 (GeneID 23333) #1: total luciferase, z-score = 0.805; total luciferase, % of control = 97.9; activity call = inactive
DPY19L1 (GeneID 23333) #2: total luciferase, z-score = -0.63; total luciferase, % of control = 69.4; activity call = inactive
DPY19L1 (GeneID 23333) #3: total luciferase, z-score = -1.51; total luciferase, % of control = 51.8; activity call = inactive
MED16 (GeneID 10025) #1: total luciferase, z-score = -1.43; total luciferase, % of control = 53.4; activity call = inactive
MED16 (GeneID 10025) #2: total luciferase, z-score = 1.54; total luciferase, % of control = 112; activity call = inactive
MED16 (GeneID 10025) #3: total luciferase, z-score = -0.309; total luciferase, % of control = 75.7; activity call = inactive
ARPP19 (GeneID 10776) #1: total luciferase, z-score = -0.136; total luciferase, % of control = 79.2; activity call = inactive
ARPP19 (GeneID 10776) #2: total luciferase, z-score = -0.212; total luciferase, % of control = 77.7; activity call = inactive
ARPP19 (GeneID 10776) #3: total luciferase, z-score = 1.6; total luciferase, % of control = 114; activity call = inactive
PCDHGA10 (GeneID 56106) #1: total luciferase, z-score = -0.364; total luciferase, % of control = 74.7; activity call = inactive
PCDHGA10 (GeneID 56106) #2: total luciferase, z-score = -0.27; total luciferase, % of control = 76.5; activity call = inactive
PCDHGA10 (GeneID 56106) #3: total luciferase, z-score = -0.769; total luciferase, % of control = 66.6; activity call = inactive
GPT2 (GeneID 84706) #1: total luciferase, z-score = 1.17; total luciferase, % of control = 105; activity call = inactive
GPT2 (GeneID 84706) #2: total luciferase, z-score = 1.12; total luciferase, % of control = 104; activity call = inactive
GPT2 (GeneID 84706) #3: total luciferase, z-score = -0.52; total luciferase, % of control = 71.5; activity call = inactive
EARS2 (GeneID 124454) #1: total luciferase, z-score = 0.695; total luciferase, % of control = 95.7; activity call = inactive
EARS2 (GeneID 124454) #2: total luciferase, z-score = -0.299; total luciferase, % of control = 75.9; activity call = inactive
EARS2 (GeneID 124454) #3: total luciferase, z-score = 0.639; total luciferase, % of control = 94.6; activity call = inactive
AZIN1 (GeneID 51582) #1: total luciferase, z-score = -1.83; total luciferase, % of control = 45.6; activity call = inactive
AZIN1 (GeneID 51582) #2: total luciferase, z-score = -2.85; total luciferase, % of control = 25.2; activity call = inactive
AZIN1 (GeneID 51582) #3: total luciferase, z-score = -2.59; total luciferase, % of control = 30.4; activity call = inactive

5 entries from above, reformatted:
Gene	reagent	total luciferase, z-score	total luciferase, % of control	activity call
ATP1A4 (GeneID 480)	1	-0.412	73.7	inactive
ATP1A4 (GeneID 480)	2	-0.0334	81.2	inactive
ATP1A4 (GeneID 480)	3	0.0191	82.3	inactive
PRDX5 (GeneID 25824)	1	-1.17	58.7	inactive
PRDX5 (GeneID 25824)	2	0.334	88.5	inactive
